Assay results published in the supplement of paper PMC11006884.
Most of the targets with a hit are listed elsewhere, so they are rarer here than in the full data. The data scatter; read single values as rough. The entries are a selection whose mix differs from that of the whole data set.

Sequences of proteins named here, by UniProt entry; tags and fusion partners are left off. A change or cut given only in a name is not applied to a line headed by its entry.
UniProt Q92888: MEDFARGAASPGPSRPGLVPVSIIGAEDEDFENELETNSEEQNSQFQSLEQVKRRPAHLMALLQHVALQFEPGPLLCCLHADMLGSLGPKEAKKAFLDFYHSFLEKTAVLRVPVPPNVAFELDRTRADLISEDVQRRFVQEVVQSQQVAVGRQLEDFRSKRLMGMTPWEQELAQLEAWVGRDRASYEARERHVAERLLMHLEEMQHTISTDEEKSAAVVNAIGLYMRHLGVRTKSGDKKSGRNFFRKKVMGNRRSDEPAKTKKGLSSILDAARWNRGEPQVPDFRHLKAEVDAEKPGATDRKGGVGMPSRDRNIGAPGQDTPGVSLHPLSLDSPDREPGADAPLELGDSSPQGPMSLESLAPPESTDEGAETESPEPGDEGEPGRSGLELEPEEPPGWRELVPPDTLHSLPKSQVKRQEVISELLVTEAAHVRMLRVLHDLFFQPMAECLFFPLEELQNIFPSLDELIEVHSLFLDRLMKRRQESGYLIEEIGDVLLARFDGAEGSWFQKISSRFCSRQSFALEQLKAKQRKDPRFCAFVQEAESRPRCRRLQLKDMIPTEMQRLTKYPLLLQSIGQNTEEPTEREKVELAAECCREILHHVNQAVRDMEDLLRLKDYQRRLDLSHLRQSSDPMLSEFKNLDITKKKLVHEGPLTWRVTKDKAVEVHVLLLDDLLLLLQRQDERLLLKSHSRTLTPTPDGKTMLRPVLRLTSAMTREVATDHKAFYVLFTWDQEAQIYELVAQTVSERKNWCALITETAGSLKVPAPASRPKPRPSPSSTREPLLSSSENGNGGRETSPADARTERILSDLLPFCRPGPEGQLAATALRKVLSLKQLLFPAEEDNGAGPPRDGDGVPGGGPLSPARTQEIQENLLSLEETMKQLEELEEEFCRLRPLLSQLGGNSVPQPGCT
UniProt Q92616, whole entry, looked up: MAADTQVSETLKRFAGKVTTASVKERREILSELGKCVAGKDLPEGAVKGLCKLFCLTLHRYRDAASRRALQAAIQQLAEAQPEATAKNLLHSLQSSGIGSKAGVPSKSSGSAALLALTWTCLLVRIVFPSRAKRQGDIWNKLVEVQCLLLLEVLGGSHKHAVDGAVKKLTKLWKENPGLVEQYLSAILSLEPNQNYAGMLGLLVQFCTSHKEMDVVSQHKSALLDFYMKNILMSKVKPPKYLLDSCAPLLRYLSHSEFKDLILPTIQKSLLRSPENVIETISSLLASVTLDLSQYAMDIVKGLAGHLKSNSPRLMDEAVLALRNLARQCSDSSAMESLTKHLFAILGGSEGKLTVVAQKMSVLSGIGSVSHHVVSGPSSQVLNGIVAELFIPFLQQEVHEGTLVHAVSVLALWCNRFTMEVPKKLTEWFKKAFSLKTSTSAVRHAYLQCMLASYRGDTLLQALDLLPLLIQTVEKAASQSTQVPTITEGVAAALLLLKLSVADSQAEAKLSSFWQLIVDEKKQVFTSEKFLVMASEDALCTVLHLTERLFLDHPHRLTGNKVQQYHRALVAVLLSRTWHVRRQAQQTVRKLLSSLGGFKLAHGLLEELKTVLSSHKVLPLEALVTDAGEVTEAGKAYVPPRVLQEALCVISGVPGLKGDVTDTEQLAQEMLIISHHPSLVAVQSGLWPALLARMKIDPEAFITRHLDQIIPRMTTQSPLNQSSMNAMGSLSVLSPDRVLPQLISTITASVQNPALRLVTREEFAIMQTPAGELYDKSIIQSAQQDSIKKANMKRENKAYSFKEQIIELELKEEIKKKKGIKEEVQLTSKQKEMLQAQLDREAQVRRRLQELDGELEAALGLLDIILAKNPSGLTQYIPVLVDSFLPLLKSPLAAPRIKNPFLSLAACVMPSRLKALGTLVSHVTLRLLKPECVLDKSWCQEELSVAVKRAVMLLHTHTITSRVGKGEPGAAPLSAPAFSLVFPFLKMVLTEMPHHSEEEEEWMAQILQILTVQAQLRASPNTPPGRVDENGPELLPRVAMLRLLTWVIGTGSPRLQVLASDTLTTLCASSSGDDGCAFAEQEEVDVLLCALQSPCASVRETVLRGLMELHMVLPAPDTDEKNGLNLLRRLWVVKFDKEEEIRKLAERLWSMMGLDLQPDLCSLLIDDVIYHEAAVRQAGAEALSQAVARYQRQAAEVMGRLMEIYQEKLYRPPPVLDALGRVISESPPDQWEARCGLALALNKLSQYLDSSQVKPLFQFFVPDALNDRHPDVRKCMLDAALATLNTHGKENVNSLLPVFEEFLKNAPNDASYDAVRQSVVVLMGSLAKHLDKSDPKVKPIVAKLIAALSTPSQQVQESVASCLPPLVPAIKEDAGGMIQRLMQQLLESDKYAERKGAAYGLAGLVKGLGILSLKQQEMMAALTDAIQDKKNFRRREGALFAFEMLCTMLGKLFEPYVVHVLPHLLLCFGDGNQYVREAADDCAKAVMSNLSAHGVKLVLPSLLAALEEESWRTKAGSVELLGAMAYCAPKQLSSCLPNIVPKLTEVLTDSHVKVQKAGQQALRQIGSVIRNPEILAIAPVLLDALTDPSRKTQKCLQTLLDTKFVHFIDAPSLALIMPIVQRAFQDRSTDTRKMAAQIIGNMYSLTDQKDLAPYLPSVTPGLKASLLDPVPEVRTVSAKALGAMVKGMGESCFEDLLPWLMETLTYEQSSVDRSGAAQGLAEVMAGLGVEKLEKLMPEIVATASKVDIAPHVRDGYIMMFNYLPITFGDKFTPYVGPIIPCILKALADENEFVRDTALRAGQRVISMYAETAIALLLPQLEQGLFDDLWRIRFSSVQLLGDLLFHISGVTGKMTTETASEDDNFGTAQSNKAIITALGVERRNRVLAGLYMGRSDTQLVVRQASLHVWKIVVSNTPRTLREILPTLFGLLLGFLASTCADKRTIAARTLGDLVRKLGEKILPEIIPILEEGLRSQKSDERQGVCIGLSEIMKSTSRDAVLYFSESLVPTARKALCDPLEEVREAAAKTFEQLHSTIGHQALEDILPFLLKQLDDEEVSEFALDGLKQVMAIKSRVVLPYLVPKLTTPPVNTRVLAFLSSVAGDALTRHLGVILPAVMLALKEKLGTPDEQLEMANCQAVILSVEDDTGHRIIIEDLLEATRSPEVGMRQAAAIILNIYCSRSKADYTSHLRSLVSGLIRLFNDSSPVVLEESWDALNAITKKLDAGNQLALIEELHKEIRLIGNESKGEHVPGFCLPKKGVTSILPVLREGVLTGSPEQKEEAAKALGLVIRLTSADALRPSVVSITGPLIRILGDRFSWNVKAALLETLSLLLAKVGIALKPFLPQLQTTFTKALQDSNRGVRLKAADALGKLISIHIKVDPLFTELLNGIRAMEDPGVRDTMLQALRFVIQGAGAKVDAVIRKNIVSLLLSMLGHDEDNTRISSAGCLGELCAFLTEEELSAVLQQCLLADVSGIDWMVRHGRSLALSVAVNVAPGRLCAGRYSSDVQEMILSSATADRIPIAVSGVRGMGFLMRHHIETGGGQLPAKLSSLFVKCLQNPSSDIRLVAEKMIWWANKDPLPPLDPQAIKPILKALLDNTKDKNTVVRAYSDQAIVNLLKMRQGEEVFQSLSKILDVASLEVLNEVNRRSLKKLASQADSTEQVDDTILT
UniProt Q96EP5: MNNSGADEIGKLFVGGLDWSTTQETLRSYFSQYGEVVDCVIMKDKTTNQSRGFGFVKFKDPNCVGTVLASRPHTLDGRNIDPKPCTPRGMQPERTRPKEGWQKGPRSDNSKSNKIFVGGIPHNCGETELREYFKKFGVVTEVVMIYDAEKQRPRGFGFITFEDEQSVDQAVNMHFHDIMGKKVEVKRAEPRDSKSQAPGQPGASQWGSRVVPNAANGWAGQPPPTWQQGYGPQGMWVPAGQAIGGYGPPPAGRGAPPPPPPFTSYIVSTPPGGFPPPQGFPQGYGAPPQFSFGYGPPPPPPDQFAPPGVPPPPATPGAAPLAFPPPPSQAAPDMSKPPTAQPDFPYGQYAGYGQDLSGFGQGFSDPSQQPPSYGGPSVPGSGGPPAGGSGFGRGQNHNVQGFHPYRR
UniProt Q93008, whole entry, looked up: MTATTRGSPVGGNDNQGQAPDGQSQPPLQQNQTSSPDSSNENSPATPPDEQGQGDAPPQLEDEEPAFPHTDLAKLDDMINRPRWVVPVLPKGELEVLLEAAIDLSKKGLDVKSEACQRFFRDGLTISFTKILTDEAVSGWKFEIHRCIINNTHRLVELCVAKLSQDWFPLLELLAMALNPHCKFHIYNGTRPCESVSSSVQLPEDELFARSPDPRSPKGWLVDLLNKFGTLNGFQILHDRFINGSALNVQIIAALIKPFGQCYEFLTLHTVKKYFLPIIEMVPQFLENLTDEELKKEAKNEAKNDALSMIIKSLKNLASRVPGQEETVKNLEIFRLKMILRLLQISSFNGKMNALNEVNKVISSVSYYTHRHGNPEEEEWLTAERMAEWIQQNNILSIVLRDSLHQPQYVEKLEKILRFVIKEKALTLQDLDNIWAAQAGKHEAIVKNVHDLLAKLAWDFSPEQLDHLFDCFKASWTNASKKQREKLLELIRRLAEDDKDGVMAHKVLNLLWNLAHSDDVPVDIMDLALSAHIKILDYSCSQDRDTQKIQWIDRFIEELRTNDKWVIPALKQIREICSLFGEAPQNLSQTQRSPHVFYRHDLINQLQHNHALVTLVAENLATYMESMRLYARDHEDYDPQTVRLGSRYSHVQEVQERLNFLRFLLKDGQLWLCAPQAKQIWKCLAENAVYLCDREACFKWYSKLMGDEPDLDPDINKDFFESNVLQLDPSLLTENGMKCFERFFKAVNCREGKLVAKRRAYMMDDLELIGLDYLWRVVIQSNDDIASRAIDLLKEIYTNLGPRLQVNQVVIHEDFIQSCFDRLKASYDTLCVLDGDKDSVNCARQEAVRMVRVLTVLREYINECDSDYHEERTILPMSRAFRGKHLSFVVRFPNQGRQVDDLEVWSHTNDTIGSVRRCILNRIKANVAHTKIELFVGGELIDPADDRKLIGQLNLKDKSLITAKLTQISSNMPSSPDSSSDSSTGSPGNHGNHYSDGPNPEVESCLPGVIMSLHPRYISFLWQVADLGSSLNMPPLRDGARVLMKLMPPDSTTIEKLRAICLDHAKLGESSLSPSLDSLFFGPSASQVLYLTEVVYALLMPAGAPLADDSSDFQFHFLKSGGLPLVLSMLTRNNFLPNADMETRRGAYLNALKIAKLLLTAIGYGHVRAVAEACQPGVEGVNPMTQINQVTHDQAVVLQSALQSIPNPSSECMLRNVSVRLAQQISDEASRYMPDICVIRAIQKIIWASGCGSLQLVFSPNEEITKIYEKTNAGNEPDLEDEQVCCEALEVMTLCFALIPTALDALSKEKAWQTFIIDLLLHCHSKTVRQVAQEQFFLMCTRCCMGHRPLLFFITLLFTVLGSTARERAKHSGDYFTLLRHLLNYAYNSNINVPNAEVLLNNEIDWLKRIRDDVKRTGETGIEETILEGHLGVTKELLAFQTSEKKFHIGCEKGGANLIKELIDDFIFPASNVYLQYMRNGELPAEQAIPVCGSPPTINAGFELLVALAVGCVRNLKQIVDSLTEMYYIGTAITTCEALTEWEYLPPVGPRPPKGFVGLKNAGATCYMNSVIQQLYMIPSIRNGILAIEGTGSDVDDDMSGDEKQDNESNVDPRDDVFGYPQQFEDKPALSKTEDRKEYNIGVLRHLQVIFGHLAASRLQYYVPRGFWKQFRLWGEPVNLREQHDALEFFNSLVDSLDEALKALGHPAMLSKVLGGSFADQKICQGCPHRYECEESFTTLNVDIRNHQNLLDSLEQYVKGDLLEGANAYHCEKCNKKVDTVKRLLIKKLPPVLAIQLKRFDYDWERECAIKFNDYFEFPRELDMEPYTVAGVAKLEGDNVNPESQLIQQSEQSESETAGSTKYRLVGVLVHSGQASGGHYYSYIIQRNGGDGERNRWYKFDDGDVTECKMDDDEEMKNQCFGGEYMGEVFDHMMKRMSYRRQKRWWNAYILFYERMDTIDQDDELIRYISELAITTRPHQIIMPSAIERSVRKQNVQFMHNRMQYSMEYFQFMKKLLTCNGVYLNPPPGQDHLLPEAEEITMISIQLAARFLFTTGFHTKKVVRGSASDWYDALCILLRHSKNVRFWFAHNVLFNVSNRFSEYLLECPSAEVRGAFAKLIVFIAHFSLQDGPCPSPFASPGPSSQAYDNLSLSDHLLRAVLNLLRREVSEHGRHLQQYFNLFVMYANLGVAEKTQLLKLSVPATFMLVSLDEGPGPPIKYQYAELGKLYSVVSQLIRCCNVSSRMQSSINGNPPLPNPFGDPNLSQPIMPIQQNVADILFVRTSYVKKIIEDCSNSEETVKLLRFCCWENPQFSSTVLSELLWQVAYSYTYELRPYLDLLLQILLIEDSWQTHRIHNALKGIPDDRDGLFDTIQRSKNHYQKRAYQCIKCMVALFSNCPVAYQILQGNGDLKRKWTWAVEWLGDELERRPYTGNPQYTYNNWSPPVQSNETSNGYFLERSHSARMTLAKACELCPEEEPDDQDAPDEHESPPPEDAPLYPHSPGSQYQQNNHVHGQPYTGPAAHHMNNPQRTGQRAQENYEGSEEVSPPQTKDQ

Compound: COC(=O)/C=C/c1ccccc1 [methyl cinnamate]
Assay: log2 ratio of iodoacetamide-alkyne labeling of the cysteine site, DMSO over compound (competition); higher = stronger covalent engagement of the cysteine by the compound, active = 1 or more
Details: 500 µM; treatment time 1 h; system: HEK293T cell lysate
Method in brief: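 Reporter intensities give each cysteine's log2 competition ratio as the mean of control channels over the mean of compound channels. The samples were HEK293T lysate (2 mg/mL) given vehicle or electrophile (500 µM, 1 h, ambient temperature), then iodoacetamide alkyne (1 h), followed by click coupling to sCIP-TMT reagents, pooling, trypsin digestion overnight at 37 °C, streptavidin enrichment, acid elution, Orbitrap Eclipse LC-MS/MS with FAIMS and FragPipe quantification. Duplicate channels and three replicates were run, and cysteines quantified in only one replicate were discarded.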

log2 ratio of iodoacetamide-alkyne labeling, inactive:
UniProt Q92888_C815 0.171, UniProt Q92616_C2015 0.121, ZNF428 C93 (UniProt Q96B54) 0.251, SYMPK C686 (UniProt Q92797) 0.175, GBF1 C1766 (UniProt Q92538) 0.238, DCPS C37 (UniProt Q96C86) 0.182, UniProt Q96EY5_C90 0.411, KCTD12 C50 (UniProt Q96CX2) 0.228, TAF15 C360 (UniProt Q92804) 0.208, RNF31 C504 (UniProt Q96EP0) 0.18, ATG2B C243 (UniProt Q96BY7) 0.154, FAF2 C32 (UniProt Q96CS3) -0.0289, GNPNAT1 C45 (UniProt Q96EK6) 0.13, Sirt1 C574 (UniProt Q96EB6) 0.285, UniProt Q96BN8_C347 0.357, UBE2F C116 (UniProt Q969M7) -0.0715, PYCR2 C262 (UniProt Q96C36) 0.148, DAZAP1 C39 (UniProt Q96EP5) -0.0785, SAAL1 C248 (UniProt Q96ER3) 0.542, TUBGCP3 C17 (UniProt Q96CW5) 0.515, AKAP1 C147 (UniProt Q92667) 0.26, UniProt Q92616_C2558 0.279, USP9X C577 (UniProt Q93008) 0.0975, UniProt Q96EH3_C233 -0.216, CREBBP C1199 (UniProt Q92793) 0.143, UniProt Q92879_C62 0.222, FUBP1 C148 (UniProt Q96AE4) 0.0915, SYMPK C859 (UniProt Q92797) -0.225, UniProt Q96ES7_C243 -0.317, GBF1 C661 (UniProt Q92538) 0.238, CMBL C10 (UniProt Q96DG6) -0.0267, UniProt Q92786_C300 0.344, UniProt Q92615_C654 0.419, AKAP1 C165 (UniProt Q92667) 0.325, UniProt Q92616_C1692 -0.284, GCDH C115 (UniProt Q92947) -0.194, CREBBP C1200 (UniProt Q92793) 0.143
